From paper PMC9114391
Results are given in words; binding and its absence hold for the method and conditions named. Binding seen in cells or lysates may run through a third protein. A result given as binding can be weak or reduced; the word gives no strength.

Sequences of proteins named here, by UniProt entry; tags and fusion partners are left off. A change or cut given only in a name is not applied to a line headed by its entry.
UniProt Q07335: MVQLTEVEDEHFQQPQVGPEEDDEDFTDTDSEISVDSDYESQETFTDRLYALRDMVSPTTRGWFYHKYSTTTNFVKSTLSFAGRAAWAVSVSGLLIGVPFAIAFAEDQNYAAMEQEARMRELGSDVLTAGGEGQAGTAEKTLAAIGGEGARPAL
UniProt V5ILY4: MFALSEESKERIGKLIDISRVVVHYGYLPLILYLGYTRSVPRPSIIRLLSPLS

Target: Tom22 with a hexahistidine tag at the C-terminus (Neurospora crassa) (UniProt Q07335)
Assay: co-purification (Ni-NTA affinity and anion exchange chromatography, SDS-PAGE with Coomassie staining); mitochondria solubilised in 1% n-dodecyl-β-D-maltoside, 20% glycerol, 300 mM NaCl, 20 mM imidazole, 20 mM Tris-HCl pH 8.5; His-tagged Tom22 held on Ni-NTA, eluted with 300 mM imidazole; then Resource Q, 0-500 mM KCl

binding: binds
Substance: Tom7 (from UniProt V5ILY4)
